These are yes or no findings as the source states them, for the method shown. Binding seen in cells or lysates may run through a third protein. Here binding means that the protein was enriched with, or labelled near, the bait; the list need not be complete.
Molecular target: Trypanosoma brucei clathrin heavy chain with a C-terminal GFP (CHC::GFP) (Trypanosoma brucei brucei (endogenous in Lister 427)) (UniProt Q38B01)
Assay: affinity purification with mass spectrometry; CHC::GFP captured from 300 mg of cryomilled powder of bloodstream- or procyclic-form cells with polyclonal llama anti-GFP antibodies on magnetic beads; 100 mM sodium phosphate pH 7.4, 250 mM Na-citrate, 0.5% Tween 20; LC-ESI MS; uncoupled beads as the control

Chains of the proteins cited; added tags and fusions are not shown. Lines headed by an entry give the natural chain unless they say otherwise; changes in a name come on top.
UniProt Q581A4: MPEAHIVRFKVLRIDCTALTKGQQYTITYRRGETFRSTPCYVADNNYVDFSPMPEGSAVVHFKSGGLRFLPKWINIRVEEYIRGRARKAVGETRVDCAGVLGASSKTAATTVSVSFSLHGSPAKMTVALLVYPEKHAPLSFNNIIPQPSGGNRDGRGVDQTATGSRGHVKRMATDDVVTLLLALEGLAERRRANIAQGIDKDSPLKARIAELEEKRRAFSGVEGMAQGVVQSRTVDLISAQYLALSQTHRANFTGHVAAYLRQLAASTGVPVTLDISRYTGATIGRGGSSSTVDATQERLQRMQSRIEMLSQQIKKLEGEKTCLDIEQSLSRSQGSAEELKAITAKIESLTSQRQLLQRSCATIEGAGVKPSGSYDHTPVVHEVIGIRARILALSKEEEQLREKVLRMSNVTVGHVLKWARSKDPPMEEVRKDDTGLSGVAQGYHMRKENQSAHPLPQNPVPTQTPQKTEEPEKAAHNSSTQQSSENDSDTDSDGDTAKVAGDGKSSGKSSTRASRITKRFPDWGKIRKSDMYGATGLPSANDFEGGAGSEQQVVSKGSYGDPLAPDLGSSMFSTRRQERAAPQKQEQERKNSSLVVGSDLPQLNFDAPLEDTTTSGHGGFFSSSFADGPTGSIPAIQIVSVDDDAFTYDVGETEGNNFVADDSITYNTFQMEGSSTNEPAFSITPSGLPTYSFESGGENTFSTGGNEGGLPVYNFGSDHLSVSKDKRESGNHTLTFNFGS
UniProt Q384B0: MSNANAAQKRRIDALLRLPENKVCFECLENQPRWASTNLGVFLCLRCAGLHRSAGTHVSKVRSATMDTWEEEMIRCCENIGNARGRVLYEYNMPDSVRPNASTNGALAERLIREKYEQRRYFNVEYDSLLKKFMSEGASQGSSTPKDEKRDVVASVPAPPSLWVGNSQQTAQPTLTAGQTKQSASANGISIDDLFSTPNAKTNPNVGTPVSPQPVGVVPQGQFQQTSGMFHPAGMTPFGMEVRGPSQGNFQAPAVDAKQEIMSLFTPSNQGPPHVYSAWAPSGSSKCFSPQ
UniProt Q387I4: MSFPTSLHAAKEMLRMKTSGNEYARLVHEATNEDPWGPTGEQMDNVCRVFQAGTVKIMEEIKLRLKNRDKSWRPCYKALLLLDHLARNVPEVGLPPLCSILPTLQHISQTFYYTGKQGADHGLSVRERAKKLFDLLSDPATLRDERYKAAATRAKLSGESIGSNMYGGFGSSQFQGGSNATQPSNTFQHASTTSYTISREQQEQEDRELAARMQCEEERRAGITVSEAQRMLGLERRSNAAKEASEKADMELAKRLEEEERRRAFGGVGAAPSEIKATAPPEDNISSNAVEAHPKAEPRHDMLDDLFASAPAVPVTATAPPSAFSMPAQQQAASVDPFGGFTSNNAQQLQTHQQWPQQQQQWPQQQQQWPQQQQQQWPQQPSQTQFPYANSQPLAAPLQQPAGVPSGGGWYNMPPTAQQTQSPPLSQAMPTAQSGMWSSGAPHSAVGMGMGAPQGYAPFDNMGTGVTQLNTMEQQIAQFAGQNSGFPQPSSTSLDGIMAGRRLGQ
UniProt Q388P6: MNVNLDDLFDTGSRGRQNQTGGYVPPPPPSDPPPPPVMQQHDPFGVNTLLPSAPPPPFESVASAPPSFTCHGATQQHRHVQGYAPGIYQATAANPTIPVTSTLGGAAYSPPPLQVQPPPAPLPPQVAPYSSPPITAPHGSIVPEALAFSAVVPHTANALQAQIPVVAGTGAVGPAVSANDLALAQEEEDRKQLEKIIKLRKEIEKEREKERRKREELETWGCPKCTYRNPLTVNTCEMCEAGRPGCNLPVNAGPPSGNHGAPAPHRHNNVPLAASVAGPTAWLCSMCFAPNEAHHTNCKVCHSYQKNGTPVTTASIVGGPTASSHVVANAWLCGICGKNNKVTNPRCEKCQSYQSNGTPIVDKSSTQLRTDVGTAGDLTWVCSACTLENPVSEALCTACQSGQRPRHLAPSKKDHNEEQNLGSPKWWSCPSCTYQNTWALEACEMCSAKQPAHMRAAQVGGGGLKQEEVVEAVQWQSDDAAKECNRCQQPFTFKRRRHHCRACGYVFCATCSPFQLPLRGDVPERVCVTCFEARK
UniProt Q57W90: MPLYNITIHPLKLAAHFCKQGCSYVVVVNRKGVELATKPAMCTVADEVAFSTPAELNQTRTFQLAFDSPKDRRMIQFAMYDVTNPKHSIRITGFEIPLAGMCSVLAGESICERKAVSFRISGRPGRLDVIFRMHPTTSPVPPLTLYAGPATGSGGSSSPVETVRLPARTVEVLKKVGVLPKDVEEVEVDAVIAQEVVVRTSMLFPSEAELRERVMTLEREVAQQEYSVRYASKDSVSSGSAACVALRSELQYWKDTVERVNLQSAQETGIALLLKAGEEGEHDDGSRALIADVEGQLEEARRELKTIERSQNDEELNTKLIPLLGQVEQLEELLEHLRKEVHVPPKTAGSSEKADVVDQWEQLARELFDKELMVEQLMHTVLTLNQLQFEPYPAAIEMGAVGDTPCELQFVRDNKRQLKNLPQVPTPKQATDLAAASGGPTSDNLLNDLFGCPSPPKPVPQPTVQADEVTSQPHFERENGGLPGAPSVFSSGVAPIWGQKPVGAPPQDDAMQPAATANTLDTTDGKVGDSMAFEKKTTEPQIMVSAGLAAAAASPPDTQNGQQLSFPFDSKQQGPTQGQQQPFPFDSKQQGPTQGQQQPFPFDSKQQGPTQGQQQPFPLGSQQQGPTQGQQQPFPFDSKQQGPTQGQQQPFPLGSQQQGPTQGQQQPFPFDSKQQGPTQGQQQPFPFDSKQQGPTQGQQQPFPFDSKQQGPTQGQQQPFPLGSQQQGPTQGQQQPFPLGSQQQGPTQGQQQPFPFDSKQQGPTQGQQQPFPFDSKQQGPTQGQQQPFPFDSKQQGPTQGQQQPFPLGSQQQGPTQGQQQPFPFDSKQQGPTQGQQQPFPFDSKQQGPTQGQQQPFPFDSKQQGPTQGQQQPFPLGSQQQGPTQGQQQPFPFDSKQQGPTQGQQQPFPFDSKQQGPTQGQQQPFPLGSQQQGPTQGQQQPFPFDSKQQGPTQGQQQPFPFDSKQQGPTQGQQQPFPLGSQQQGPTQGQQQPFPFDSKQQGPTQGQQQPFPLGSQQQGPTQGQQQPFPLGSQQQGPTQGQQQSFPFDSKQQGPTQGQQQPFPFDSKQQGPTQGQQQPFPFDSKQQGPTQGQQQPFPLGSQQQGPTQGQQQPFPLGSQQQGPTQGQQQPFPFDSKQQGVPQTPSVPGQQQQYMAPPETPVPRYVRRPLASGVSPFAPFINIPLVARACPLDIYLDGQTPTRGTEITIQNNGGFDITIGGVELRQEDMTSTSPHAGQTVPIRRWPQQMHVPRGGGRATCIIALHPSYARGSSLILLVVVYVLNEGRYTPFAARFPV

Row | Substance | binding
1 | TbCAP80, Tb927.8.3840 (from UniProt Q581A4) | binds
2 | TbSMAP, Tb927.11.9180 (from UniProt Q384B0) | binds
3 | Trypanosoma brucei EpsinR (TbEpsinR) (from UniProt Q387I4) | binds

Further lines, results first:

Row | binding | Substance
4 | binds | Tb927.10.13520 (from UniProt Q388P6)
5 | binds | TbCAP141, Tb927.8.2820 (from UniProt Q57W90)

From PMC5399782
